Results are given in words; binding and its absence hold for the method and conditions named. In cells and extracts the contact can be indirect. A result given as binding can be weak or reduced; the word gives no strength.
Biological target: GST-Bag-1L fusion protein with K279 mutated alone (human) (UniProt Q99933)
Experiment: pull-down; GST-Bag-1L fusion proteins (wild type and BAG domain point mutants) with lysates from LNCaP cells; only the target purified

Amino acid sequences for entries named in this document (tags omitted). A change or cut given only in a name is not applied to a line headed by its entry.
UniProt Q99933: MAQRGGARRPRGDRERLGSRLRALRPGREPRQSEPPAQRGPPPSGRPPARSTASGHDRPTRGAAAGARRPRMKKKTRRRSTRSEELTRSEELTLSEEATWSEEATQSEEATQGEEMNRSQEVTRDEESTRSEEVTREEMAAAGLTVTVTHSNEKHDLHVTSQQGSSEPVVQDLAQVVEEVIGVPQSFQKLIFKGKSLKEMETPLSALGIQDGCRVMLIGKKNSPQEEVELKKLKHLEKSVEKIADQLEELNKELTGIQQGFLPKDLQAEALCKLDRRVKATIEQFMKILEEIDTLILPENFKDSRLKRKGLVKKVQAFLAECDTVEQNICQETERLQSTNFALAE
UniProt P10275: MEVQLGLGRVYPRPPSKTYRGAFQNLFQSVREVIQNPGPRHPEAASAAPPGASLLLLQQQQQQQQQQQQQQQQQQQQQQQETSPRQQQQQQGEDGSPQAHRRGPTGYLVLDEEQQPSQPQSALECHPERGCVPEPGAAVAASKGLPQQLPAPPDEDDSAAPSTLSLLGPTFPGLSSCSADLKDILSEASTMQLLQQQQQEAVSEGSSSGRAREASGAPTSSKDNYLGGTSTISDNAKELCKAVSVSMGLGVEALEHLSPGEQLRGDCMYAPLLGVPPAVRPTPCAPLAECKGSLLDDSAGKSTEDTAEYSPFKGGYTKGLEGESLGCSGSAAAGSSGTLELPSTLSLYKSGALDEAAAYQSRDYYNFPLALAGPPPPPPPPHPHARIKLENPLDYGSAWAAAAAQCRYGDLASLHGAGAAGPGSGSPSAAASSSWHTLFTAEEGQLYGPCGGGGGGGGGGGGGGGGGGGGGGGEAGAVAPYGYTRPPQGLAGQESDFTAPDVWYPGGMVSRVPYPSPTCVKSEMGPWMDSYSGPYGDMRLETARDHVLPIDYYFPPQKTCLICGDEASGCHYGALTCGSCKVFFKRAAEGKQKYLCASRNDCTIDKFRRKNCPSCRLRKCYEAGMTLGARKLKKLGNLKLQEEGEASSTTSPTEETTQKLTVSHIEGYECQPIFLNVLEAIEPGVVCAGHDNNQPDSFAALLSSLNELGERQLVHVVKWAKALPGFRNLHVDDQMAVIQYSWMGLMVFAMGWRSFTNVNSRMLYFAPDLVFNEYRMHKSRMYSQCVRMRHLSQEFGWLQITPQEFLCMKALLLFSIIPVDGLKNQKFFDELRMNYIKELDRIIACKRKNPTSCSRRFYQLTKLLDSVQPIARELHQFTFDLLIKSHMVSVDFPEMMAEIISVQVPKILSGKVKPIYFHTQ

binding: binds
Substance: androgen receptor, endogenous in LNCaP cells (from UniProt P10275 1-920)
